Measured values: patent US20230257373A1, “QUORUM SENSING INHIBITORS AND METHODS OF USE” (priority 2020, published 2023)
Some of these results come from one statement about several compounds together.

By UniProt entry, the sequences of proteins in these tests, tags left out. Where a name states a change or a piece, a line headed by the entry shows the natural chain unless it says otherwise.
UniProt P21308: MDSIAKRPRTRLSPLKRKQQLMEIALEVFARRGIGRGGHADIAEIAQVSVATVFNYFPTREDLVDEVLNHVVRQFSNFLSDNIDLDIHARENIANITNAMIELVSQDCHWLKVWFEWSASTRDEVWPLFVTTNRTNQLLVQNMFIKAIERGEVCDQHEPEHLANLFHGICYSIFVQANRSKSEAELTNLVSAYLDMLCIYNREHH

How the values were obtained:
[1] = molecular target: T1, V. campbellii LuxR (Vibrio harveyi, UniProt P21308); test: qRT-PCR and western blots in wild-type V. campbellii; type: cell-based; settings: qRT-PCR
T1 construct: expressed in transfected cells; host or cells: E. coli DH10B with pKM699 and reporter pJV064
Protocol: The Qstatin-treated regulon overlapped with the SmcR regulon by more than 50%, with similar gene expression fold-changes. […] This is important to note because LuxR and HapR proteins are known to autorepress their own expression. […] We also examined the transcript levels for luxC and 05222 genes that are directly activated or repressed by LuxR, respectively.
All PCR reactions were performed using Phusion HF polymerase (NEB). T4 polynucleotide kinase (T4 PNK) used in EMSAs and all other enzymes were purchased from NEB and used according to manufacturer's instructions. Site-directed mutagenesis for construction of plasmids expressing mutant proteins was carried out using the Agilent QuikChange II XL Site-Directed Mutagenesis Kit. All oligonucleotides were purchased from Integrated DNA Technologies (IDT).ALL plasmid constructs were confirmed by DNA sequencing (Eurofins). Cloning details for plasmids are available upon request. Western blot analysis was performed as previously described (van Kessel et al., 2013b), except that new anti-LuxR antibodies were generated through Cocalico against purified LuxR protein. In addition, the western blots were probed with anti-RpoB (Neoclone).
Then cells were induced with 50 μM IPTG and grown under the same conditions until cells reached an OD600 of approximately 1, at which 5 mL of cells were collected by centrifugation and frozen in liquid N2. RNA was extracted using a Trizol/chloroform extraction protocol previously described (Rutherford et al., 2011). Quantitative real-time PCR (qRT-PCR) was performed as previously described (Chaparian et al., 2016). Samples were normalized to the internal standard hfq gene. The ΔΔCT values were used to analyze data from three independent biological replicates. Symbols on graphs represent the mean values and error bars represent the standard deviations. All statistical analysis was performed with functions from GraphPad Prism version 8.

[2] = system: E. coli; test: E. coli growth yield in bioassay; type: cell-based; settings: only observed at concentrations of 100 mM and higher

| Structure (SMILES) | Increase in luxR transcript levels [1] | E. coli growth yield limited compared to negative controls [2] |
| --- | --- | --- |
| O=S(=O)(c1cccs1)n1ccc(-c2ccccc2)n1 [Compound 10B] | 6- to 7 fold |  |
| O=S(=O)(c1ccc(Cl)s1)n1cncn1 [Compound 4C, 1-((5-chlorothiophen-2-yl)sulfonyl)-1H-1,2,4-triazole] |  | more than 10% |
| O=S(=O)(c1ccc(Cl)s1)n1ccc(-c2ccccc2)n1 [Compound 10C, 1-((5-chlorothiophen-2-yl)sulfonyl)-3-phenyl-1H-pyrazole] | 6- to 7 fold |  |
| O=S(=O)(c1ccc(Br)s1)n1ccc(-c2ccccc2)n1 [Compound 10A, 1-((5-bromothiophen-2-yl)sulfonyl)-3-phenyl-1H-pyrazole] | 6- to 7 fold |  |
| O=S(=O)(c1ccc(Br)s1)n1cncn1 [Compound 4A, 1-((5-bromothiophen-2-yl)sulfonyl)-1H-1,2,4-triazole] |  | more than 10% |
